test: general procedure: Fmoc solid-phase peptide synthesis; Rink Amide MBHA resin (0.5 mmol/g); HATU/HOAt/DIPEA (first residue); DIC/HOBt; HBTU/HOBt/DIPEA; conditions: whole synthesis, scale 0.26 g resin (0.5 mmol/g), trifluoroacetate; acetate by salt conversion

Substance | isolated mass [mg]
Ac-[D-Phe(2,4-diCl)]—(S-Pip)-Asn-Thr-azaPhe-Gly-Leu-Arg(Me)-Trp-NH2 | 45
Ac-PEG4-(D-Tyr)-Hyp-Asn-Thr-Phe-azaGly-Leu-Arg(Me)-Trp-NH2 | 12.0
Ac-(D-Tyr)-Hyp-Asn-Thr-Phe-azaNMeGly-Leu-Arg(Me)-Trp-NH2 | 11.5
Ac-[D-Phe(2,4-diCl)]—(S-Pip)-Asn-Thr-Phe-azaGly-Leu-Phe(4-Pyrazol)-Trp-NH2 | 80
Palm-PEG8-Gly-Gly-Tyr-Asn-Trp-Asn-Ser-Phe-Gly-Leu-Arg-Phe-NH2 | 10.9
Ac-Lys(Palm-PEG8)-Gly-Gly-(D-Tyr)-Hyp-Asn-Thr-Phe-azaGly-Leu-Arg(Me)-Trp-NH2 | 31
Palm-PEG8-Gly-Gly-(D-Tyr)-Hyp-Asn-Thr-Phe-azaGly-Leu-Arg(Me)-Trp-NH2 | 20.4

test: general procedure: Fmoc solid-phase peptide synthesis; Rink Amide MBHA; HATU/HOAt/DIPEA (first residue); DIC/HOBt; HBTU/HOBt/DIPEA; conditions: whole synthesis, scale 0.4 g resin (0.5 mmol/g), trifluoroacetate; acetate by salt conversion

Substance | isolated mass [mg]
Ac-[D-Phe(2,4-DiCl)]-Hyp-Asn-Thr-Phe-azaPro-Leu-Arg(Me)-Trp-NH2 | 5.9

same assay, conditions: whole synthesis, scale 1.0 g resin (0.5 mmol/g), trifluoroacetate; acetate by salt conversion

Substance | isolated mass [mg]
Ac-D-Tyr-Hyp-Asn-Thr-Phe-ACPO-Leu-Arg(Me)-Trp-NH2 | 7.1

From patent US11427615B2 (XDCEXPLORER (SHANGHAI) CO., LTD., priority 2017, dated 2022)
